Measured values reported in patent US7211566B2 (Universite De Sherbrooke, priority 2003, dated 2007).
At least one peptide structure holds a part that was inferred or is arguable (an end, a ring closure or a residue). Square brackets hold non-standard residues; d marks the D form. Peptide text beside a SMILES is read from it. Oic = O=C(O)[C@@H]1C[C@@H]2CCCC[C@@H]2N1; d2Nal = N[C@H](Cc1ccc2ccccc2c1)C(=O)O; αMeF = C[C@](N)(Cc1ccccc1)C(=O)O; Orn = NCCC[C@H](N)C(=O)O

What was measured:
Format in all cases: in vivo
[1] = tested on: STZ diabetic mice; assay: Tail flick test, type-1 diabetic hyperalgesia
Experimental: (§1) Male CD-1 mice weighting between 25–30 g (Charles River Breeding Laboratory, St-Constant, QC, Canada) were used. The mice were housed four by cage with free access to food and water. They were maintained under conditions of standard lighting, (alternating 12-h light/dark cycle), temperature (22±0.5° C.) and humidity (60±10%) with food and water available at libitum. Animals were used only once in a given experiment. Experiments were conducted between 10:00 and 18:00 h.
(§2) Streptozotocin (Pharmacia & Upjohn Incorporation, Mississauga, ON, Canada) was dissolved in saline at a pH of 4.5 and administered to mice i.p. The BKB1 agonist desArg^9BK and compound c were dissolved in saline and administered to mice i.p.
(§3) Insulin-dependent diabetes mellitus (IDDM) was induced in mice using STZ. Male CD-1 mice were given a single high i.p. dose of STZ (200 mg/kg) (McEvoy et al., 1984, J Clin Invest 74, 715–722). The induction of type 1 diabetes was confirmed by measuring the blood glucose level 96 h after STZ administration (Chakir and Plante, 1996, Prostagl Leukot Essent Fatty Acids 54, 45–51). Blood was withdrawn from the retro-orbital sinus of mice with a 50 μl heparinized capillary tube. Blood glucose levels were determined with an automatic analyzer (Glucometer Elite XL, Bayer Incorporation, Toronto, Ontario, Canada) using glucose oxidase/potassium ferricyanide reagent strips. […] The rate of induction of diabetes was 86%.
The tail flick test of D'Amour and Smith (D'Amour and Smith, 1941, J Pharmacol Exp Ther 72, 74–79) modified for mice was used. […] The radiant light is focussed on a blackened spot in the mid region of the animal's tail (2–3 cm from the tip of the tail) and the latency between the application of the stimulation light and the flicking of the animal's tail is recorded. When the animal flicks its tail, its exposes a photocell in the apparatus immediately below the tail and the instrument is automatically stopped and the time is recorded. […]
(§4) The effect of the selected drugs on nociception was determined by converting the hot plate, the plantar stimulation, the tail immersion or the tail flick responses from latencies into MPE (Maximum Percent Effect) according to the following equation (Bhargava and Zhao, 1996, Neuropeptides, 30, 219–223): […]
In all tests, pre-treatment latencies were determined three times with an interval of 24 h starting three days before the injection of STZ or saline and the mean was calculated in order to obtain stable pre-drug response latency. On day seven following the injection of STZ, the selective BKB1 receptor agonist desArg^9BK and/or the specific antagonists of the present invention were given i.p. and the effect of their acute administration on nociception were determined at different time intervals. […]

[2] = tested on: STZ diabetic mice; assay: Hot plate test, type-1 diabetic hyperalgesia
Experimental: as §1, §2, §3
The hot plate test was adapted from the technique of Eddy and Leimbach (1953, J Pharmacol Exp Ther 107, 385–389). In brief, a plexiglass cylinder (20×14 cm) is used to confine the mouse to the anodized heated surface (275×263 mm) of the apparatus (IITC Hot Plate Analgesia Meter, Life Science, Calif., USA). The plate is adjusted to a temperature of 55° C.±0.5° C. When the pain threshold is reached the animal starts to react by licking its hind paw or to jump, and the reaction time is recorded with a built-in timer, with a maximum cut-off time of 30 s to avoid tissue damage. Mice with latency value between 10–15 s were selected.
as §4
In all tests, pre-treatment latencies were determined three times with an interval of 24 h starting three days before the injection of STZ or saline and the mean was calculated in order to obtain stable pre-drug response latency. On day seven following the injection of STZ, the selective BKB1 receptor agonist desArg^9BK and/or the specific antagonists of the present invention were given i.p. and the effect of their acute administration on nociception were determined at different time intervals. The mice were divided into the following groups (n=6–10): • i) group control, treated with saline; • ii) group treated with STZ (200 mg/kg, i.p., once); • iii) group treated with STZ+compound c of the present invention as described above (50–600 μg/kg, i.p.); • iv) group treated with STZ+desArg^9BK (400 μg/kg, i.p.); • v) group treated with STZ+desArg^9BK+compound c of the present invention as described above (0.8–1.6 mg/kg, i.p.); • vi) group treated only with compound c of the present invention as described above; and • vii) group treated only with desArg^9BK. In Vivo Assay of Vascular Permeability (Microcirculatory Leakage in Mice)

[3] = tested on: STZ diabetic mice; assay: Tail immersion test, type-1 diabetic hyperalgesia; conditions: control mice, <400 μg/kg i.p.
Experimental: as §1, with “h. […]” for “h.”
Insulin-dependent diabetes mellitus (IDDM) was induced in mice using STZ. […] Blood glucose levels were determined with an automatic analyzer (Glucometer Elite XL, Bayer Incorporation, Toronto, Ontario, Canada) using glucose oxidase/potassium ferricyanide reagent strips. […]
The tail-immersion test was performed according to Coderre and Rollman (Coderre and Rollman, 1983, Life Sci 32, 2139–2146). […] The latency between submersion of the tail and its removal from the water by the animal was recorded, with a maximum cut-off time of 10 seconds to minimize tail skin tissue damage. […]
as §4

[4] = STZ diabetic mice, doses >200 μg/kg i.p.

## CC[C@H](C)[C@H](NC(=O)[C@@H](Cc1ccc2ccccc2c1)NC(=O)[C@H](CO)NC(=O)[C@](C)(Cc1ccccc1)NC(=O)CNC(=O)[C@@H]1CCCN1C(=O)[C@@H]1C[C@@H]2CCCC[C@@H]2N1C(=O)[C@H](CCCNC(=N)N)NC(=O)[C@H](CCCN)NC(C)=O)C(=O)O [compound c, Ac-Orn[Oic^2,(α-Me)Phe^5,D-βNal^7,Ile^8]desArg^9BK] (Ac-[Orn]R[Oic]PG[αMeF]S[d2Nal]I-OH)
[1]; STZ diabetic mice, co-administered with desArg^9BK
  effect on desArg^9BK-potentiated diabetic hyperalgesia: reversing the potentiating effect of desArg^9BK
[1]; STZ diabetic mice, i.p.
  time at which inhibitory effect ceased: 50 min
  time of maximal inhibition: 10 min
[1]; non-diabetic mice, <600 μg/kg i.p.
  effect on nociception: no significant effect
[2]; STZ diabetic mice, 200 μg/kg i.p.
  effect on STZ-mediated hyperalgesia: abolished
[2]; STZ diabetic mice, all doses i.p.
  time of maximal inhibition: 20 min
[2]; STZ diabetic mice, co-administered with desArg^9BK, 1.6, 2.0 and 2.4 mg/kg i.p.
  effect on desArg^9BK-potentiated diabetic hyperalgesia: reversed the potentiating effect of desArg^9BK
[2]; [4]
  time after which inhibition completely receded: 60 min
  time at which inhibitory potency was reduced by half: 45 min
[2]; control healthy mice, 50–600 μg/kg i.p.
  effect on nociceptive threshold (baseline): did not affect
[3]
  effect on nociception: no significant effect
